Results taken from article PMC4906405.
No constants are given. Whether binding was seen depends on the method and setting. Values belong to the substance of their own block, whether it stands above or below them.

Protein sequences, listed by entry. Tags and fused reporters are not part of them. Lines headed by an entry give the natural chain unless they say otherwise; changes in a name come on top. Chains listed by the source or under a name are the forms on record and can include a tag or linker. Residues count along the entry.
UniProt G1T469: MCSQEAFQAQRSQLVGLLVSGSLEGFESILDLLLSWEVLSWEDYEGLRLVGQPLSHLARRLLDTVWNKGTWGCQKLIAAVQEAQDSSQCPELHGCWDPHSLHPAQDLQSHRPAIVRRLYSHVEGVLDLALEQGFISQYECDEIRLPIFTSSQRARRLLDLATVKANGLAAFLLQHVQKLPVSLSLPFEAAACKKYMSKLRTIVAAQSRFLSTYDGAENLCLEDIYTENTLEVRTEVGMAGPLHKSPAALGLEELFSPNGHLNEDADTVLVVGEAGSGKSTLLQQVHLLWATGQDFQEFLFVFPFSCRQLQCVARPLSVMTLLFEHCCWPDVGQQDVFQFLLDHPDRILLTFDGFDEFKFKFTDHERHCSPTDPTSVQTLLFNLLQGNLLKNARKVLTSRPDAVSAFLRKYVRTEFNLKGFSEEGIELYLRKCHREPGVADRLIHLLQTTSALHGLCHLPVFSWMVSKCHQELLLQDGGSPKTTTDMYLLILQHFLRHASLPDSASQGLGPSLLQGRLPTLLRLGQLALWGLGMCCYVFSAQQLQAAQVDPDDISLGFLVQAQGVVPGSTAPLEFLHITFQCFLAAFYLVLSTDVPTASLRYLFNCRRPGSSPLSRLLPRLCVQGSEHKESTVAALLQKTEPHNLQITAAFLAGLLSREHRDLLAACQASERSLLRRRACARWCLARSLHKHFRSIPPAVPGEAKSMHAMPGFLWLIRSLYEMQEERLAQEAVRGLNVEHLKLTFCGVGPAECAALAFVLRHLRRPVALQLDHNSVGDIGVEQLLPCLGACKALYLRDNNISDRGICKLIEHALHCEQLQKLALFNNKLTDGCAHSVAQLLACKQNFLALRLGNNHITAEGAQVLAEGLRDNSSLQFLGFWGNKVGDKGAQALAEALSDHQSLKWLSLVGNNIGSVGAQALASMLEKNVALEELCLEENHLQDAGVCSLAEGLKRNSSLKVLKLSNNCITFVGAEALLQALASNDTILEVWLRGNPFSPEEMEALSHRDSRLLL
OcNOD2ΔCARD^SER (OcNOD2ΔCARD with surface entropy reduction mutations) (G1T469, form named): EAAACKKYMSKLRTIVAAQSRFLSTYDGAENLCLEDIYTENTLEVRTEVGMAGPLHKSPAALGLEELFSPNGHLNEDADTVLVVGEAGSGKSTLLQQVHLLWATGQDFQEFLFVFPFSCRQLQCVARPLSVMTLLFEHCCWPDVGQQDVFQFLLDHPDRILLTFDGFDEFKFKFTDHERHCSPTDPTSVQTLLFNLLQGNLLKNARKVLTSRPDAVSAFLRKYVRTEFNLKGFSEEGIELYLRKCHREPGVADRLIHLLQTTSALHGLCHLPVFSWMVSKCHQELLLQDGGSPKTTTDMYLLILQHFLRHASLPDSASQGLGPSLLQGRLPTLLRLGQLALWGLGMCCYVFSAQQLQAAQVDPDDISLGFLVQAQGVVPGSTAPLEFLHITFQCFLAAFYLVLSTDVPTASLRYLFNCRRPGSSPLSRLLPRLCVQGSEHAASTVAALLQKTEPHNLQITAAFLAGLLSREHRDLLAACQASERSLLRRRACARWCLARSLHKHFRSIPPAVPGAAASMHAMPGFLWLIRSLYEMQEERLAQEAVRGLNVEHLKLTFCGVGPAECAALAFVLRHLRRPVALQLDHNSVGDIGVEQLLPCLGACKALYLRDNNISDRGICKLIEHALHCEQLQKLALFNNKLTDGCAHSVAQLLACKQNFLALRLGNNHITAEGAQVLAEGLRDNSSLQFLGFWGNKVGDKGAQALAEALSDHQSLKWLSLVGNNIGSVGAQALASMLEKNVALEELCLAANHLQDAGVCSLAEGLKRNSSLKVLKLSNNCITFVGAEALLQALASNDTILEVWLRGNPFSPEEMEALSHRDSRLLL
OcNOD2ΔCARDΔloop (OcNOD2ΔCARD with residues 245-251 and 626-635 deleted) (G1T469, form named): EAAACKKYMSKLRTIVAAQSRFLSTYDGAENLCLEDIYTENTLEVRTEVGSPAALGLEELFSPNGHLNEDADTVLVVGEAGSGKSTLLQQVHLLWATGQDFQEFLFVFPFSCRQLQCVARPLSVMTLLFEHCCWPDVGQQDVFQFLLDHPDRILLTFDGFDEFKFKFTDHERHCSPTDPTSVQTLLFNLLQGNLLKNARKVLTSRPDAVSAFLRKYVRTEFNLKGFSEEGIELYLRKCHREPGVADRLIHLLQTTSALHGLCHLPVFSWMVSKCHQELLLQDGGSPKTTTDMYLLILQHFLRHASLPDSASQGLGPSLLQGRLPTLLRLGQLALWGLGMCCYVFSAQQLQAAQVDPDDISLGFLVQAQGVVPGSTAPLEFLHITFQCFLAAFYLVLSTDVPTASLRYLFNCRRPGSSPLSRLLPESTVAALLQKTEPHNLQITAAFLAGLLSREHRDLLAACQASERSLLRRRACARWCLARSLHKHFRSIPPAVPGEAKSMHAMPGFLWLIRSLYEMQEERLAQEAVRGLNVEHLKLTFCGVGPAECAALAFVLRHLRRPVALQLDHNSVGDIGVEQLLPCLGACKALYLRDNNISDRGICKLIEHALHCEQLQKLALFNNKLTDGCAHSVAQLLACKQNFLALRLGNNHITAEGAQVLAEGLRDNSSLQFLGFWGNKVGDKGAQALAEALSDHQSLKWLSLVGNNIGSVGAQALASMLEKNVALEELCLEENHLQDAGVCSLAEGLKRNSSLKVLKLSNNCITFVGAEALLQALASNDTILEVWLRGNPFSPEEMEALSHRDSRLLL

Legend:
Assay in all cases: SEC; gel filtration chromatography of each purified NOD2 protein alone, in solution; both purified
[1] = target: full-length rabbit NOD2 (OcNOD2; residues 1-1,020) (rabbit (Oryctolagus cuniculus)) (UniProt G1T469)
[2] = target: OcNOD2ΔCARD^SER (OcNOD2ΔCARD with surface entropy reduction mutations) (rabbit (Oryctolagus cuniculus)) (UniProt G1T469)
[3] = target: OcNOD2ΔCARD (OcNOD2 residues 195-1,020) (rabbit (Oryctolagus cuniculus)) (UniProt G1T469)
[4] = target: OcNOD2ΔCARDΔloop (OcNOD2ΔCARD with residues 245-251 and 626-635 deleted) (rabbit (Oryctolagus cuniculus)) (UniProt G1T469)

binding [1]: no binding
Substance: full-length rabbit NOD2 (OcNOD2; residues 1-1,020) (from UniProt G1T469 1-1013)

binding [2]: no binding
Substance: OcNOD2ΔCARD^SER (OcNOD2ΔCARD with surface entropy reduction mutations) (from UniProt G1T469 188-1013) (domain or fragment)

binding [3]: no binding
Substance: OcNOD2ΔCARD (OcNOD2 residues 195-1,020) (from UniProt G1T469 188-1013) (domain or fragment)

binding [4]: no binding
Substance: OcNOD2ΔCARDΔloop (OcNOD2ΔCARD with residues 245-251 and 626-635 deleted) (from UniProt G1T469 188-1013) (domain or fragment)
